The results in this text go back to paper PMC5797244.

Sequences of proteins named here, by UniProt entry; tags and fusion partners are left off.
UniProt Q4ACU6: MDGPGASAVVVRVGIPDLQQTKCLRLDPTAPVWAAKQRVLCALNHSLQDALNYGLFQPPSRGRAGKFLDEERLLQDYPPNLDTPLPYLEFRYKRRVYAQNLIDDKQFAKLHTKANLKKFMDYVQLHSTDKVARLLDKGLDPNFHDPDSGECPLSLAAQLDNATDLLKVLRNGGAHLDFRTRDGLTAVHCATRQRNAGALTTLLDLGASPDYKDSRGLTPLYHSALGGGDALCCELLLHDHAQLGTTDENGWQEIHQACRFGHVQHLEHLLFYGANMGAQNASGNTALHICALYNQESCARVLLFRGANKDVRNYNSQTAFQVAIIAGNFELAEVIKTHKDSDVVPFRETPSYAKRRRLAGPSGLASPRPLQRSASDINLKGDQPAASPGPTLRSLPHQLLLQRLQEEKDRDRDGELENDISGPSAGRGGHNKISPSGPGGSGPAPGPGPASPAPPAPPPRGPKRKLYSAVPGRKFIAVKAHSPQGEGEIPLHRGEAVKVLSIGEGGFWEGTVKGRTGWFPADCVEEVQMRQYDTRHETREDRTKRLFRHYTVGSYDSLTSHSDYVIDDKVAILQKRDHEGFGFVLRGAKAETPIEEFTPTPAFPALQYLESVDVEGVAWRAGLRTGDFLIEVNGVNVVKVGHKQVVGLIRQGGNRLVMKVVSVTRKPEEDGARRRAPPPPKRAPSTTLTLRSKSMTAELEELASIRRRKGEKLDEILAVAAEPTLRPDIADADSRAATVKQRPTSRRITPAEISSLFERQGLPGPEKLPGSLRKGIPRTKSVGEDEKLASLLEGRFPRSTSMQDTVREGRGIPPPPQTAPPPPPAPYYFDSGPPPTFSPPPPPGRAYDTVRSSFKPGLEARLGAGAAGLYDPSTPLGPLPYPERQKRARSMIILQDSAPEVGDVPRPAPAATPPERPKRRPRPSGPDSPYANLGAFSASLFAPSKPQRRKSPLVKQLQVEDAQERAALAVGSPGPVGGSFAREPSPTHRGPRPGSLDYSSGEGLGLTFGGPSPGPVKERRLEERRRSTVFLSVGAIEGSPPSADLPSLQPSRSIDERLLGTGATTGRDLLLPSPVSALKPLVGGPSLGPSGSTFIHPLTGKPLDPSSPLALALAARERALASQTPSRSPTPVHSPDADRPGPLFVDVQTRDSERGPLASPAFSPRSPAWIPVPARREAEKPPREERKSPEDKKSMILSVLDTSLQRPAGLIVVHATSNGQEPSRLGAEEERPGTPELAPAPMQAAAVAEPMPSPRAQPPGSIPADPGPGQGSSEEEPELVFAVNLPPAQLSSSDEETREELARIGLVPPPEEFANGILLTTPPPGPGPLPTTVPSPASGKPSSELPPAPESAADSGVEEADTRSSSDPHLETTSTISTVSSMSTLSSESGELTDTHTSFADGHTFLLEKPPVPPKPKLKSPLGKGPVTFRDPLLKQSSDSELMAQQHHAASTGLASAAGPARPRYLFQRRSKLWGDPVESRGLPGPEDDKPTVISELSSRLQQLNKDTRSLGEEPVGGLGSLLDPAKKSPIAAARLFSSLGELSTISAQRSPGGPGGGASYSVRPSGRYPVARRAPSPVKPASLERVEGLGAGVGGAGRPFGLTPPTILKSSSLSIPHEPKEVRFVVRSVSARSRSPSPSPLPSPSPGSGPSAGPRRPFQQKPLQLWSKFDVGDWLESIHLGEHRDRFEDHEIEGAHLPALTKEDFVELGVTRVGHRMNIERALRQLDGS

Results are given in words; binding and its absence hold for the method and conditions named. Binding seen in cells or lysates may run through a third protein. Some binding calls cover weakened binding; strength is not graded here.

The target of this test is SHANK3 (mouse (endogenous in adult mouse cortex)) (UniProt Q4ACU6). The test is described as follows: co-IP; SHANK3 immunoprecipitated from WT and Dlgap1 KO adult mouse cortex; Western blots for Dlg4 and Homer1; triplicate assays.

B1: Homer1 (protein, UniProt Q9Z2Y3 1-366)
chain: MGEQPIFSTRAHVFQIDPNTKKNWVPTSKHAVTVSYFYDSTRNVYRIISLDGSKAIINSTITPNMTFTKTSQKFGQWADSRANTVYGLGFSSEHHLSKFAEKFQEFKEAARLAKEKSQEKMELTSTPSQESAGGDLQSPLTPESINGTDDERTPDVTQNSEPRAEPTQNALPFPHSAGDRTQALSHASSAISKHWEAELATLKGNNAKLTAALLESTANVKQWKQQLAAYQEEAERLHKRVTELECVSSQANAVHSHKTELNQTVQELEETLKVKEEEIERLKQEIDNARELQEQRDSLTQKLQEVEIRNKDLEGQLSDLEQRLEKSQNEQEAFRSNLKTLLEILDGKIFELTELRDNLAKLLECS
Take B1: the binding result is “binds”.
